PubChem BioAssay AID720505, Drosophila RNAi Screening Center | 2013

Screen: 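Fly regulators or components of the CRAC channel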 (primary screen)
Cell system: Drosophila S2R+ cells
Reagents: long dsRNA against Drosophila genes
Conditions: thapsigargin (2 µM) in calcium-free buffer to empty internal stores, then 2 mM calcium added back
Read-out: 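Stores emptied by 2 µM thapsigargin without calcium, then 2 mM calcium re-added; fluo-4 fluorescence followed by FLIPR in 384-well plates, per-well averaged endpoint, raw; two screen passes, some wells retested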
Direction: calcium signal and retest calcium signal: higher = more calcium entry after store depletion
Active means: 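About 1500 genes called as lowering calcium entry, by varying amounts, judged against per-plate control wells with STIM1 as positive and Rho1 as negative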
Meaning of the calls: active = called as lowering calcium entry; inactive = not called
In all, the deposit lists about 20,000 reagents; this is an unselected part of those that have a named target and a result. Of all reagents, about 2,100 (10%) are marked active. 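Raw plate signals without normalisation; calls rest on control-based scores that were not deposited; replicate 2 separates called from uncalled poorly.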 Reagents against one gene are numbered here. A plus sign joins genes that one reagent is predicted to hit. The record does not give: the amount of reagent, the time to read-out.

The opening 2 records as a preview:
{"gene": "CG5500", "reagent no.": 1, "calcium signal, replicate 1": 193, "calcium signal, replicate 2": 142, "call": "inactive"}
{"gene": "TH1", "reagent no.": 1, "calcium signal, replicate 1": 125, "calcium signal, replicate 2": 136, "call": "inactive"}

The listing, from the first entry:
{"gene": "CG5500", "reagent no.": 1, "calcium signal, replicate 1": 193, "calcium signal, replicate 2": 142, "call": "inactive"}
{"gene": "TH1", "reagent no.": 1, "calcium signal, replicate 1": 125, "calcium signal, replicate 2": 136, "call": "inactive"}
{"gene": "HisRS", "reagent no.": 1, "calcium signal, replicate 1": 92.8, "calcium signal, replicate 2": 94.6, "call": "inactive"}
{"gene": "Cht7 + tRNA:Cys-GCA-1-4 + tRNA:Lys-CTT-1-13", "reagent no.": 1, "calcium signal, replicate 1": 6663, "calcium signal, replicate 2": 99, "call": "inactive"}
{"gene": "GstD9", "reagent no.": 1, "calcium signal, replicate 1": 121, "calcium signal, replicate 2": 94.9, "call": "inactive"}
{"gene": "CG12991", "reagent no.": 1, "calcium signal, replicate 1": 89, "calcium signal, replicate 2": 111, "call": "inactive"}
{"gene": "Klp68D", "reagent no.": 1, "calcium signal, replicate 1": 144, "calcium signal, replicate 2": 90.7, "call": "inactive"}
{"gene": "CG15734", "reagent no.": 1, "calcium signal, replicate 1": 125, "calcium signal, replicate 2": 99.5, "call": "inactive"}
{"gene": "Hsp70Aa + Hsp70Bb + Hsp70Ba + 3 more", "reagent no.": 1, "calcium signal, replicate 1": 65, "calcium signal, replicate 2": 125, "call": "active"}
{"gene": "CG7906", "reagent no.": 1, "calcium signal, replicate 1": 82.5, "calcium signal, replicate 2": 123, "call": "inactive"}
{"gene": "Spn77Ba", "reagent no.": 1, "calcium signal, replicate 1": 115, "calcium signal, replicate 2": 91, "call": "inactive"}
{"gene": "Clbn", "reagent no.": 1, "calcium signal, replicate 1": 226, "calcium signal, replicate 2": 156, "call": "inactive"}
{"gene": "RpL14", "reagent no.": 1, "calcium signal, replicate 1": 69.6, "calcium signal, replicate 2": 52.4, "call": "active"}
{"gene": "Burs", "reagent no.": 1, "calcium signal, replicate 1": 177, "calcium signal, replicate 2": 168, "call": "inactive"}
{"gene": "Cyp6a17", "reagent no.": 1, "calcium signal, replicate 1": 140, "calcium signal, replicate 2": 111, "call": "inactive"}
{"gene": "sick", "reagent no.": 1, "calcium signal, replicate 1": 116, "calcium signal, replicate 2": 136, "call": "inactive"}
{"gene": "sick", "reagent no.": 2, "calcium signal, replicate 1": 101, "calcium signal, replicate 2": 94, "call": "inactive"}
{"gene": "sick", "reagent no.": 3, "calcium signal, replicate 1": 122, "calcium signal, replicate 2": 91.7, "call": "inactive"}
{"gene": "sick", "reagent no.": 4, "calcium signal, replicate 1": 131, "calcium signal, replicate 2": 106, "call": "inactive"}
{"gene": "sick", "reagent no.": 5, "calcium signal, replicate 1": 59.5, "calcium signal, replicate 2": 95.3, "call": "active"}
{"gene": "sick", "reagent no.": 6, "calcium signal, replicate 1": 110, "calcium signal, replicate 2": 88.3, "call": "inactive"}
{"gene": "CG32599", "reagent no.": 1, "calcium signal, replicate 1": 100, "calcium signal, replicate 2": 68.1, "call": "inactive"}
{"gene": "Ctr1A", "reagent no.": 1, "calcium signal, replicate 1": 151, "calcium signal, replicate 2": 89, "call": "inactive"}
{"gene": "RpL23", "reagent no.": 1, "calcium signal, replicate 1": 108, "calcium signal, replicate 2": 221, "call": "inactive"}
{"gene": "AspRS-m", "reagent no.": 1, "calcium signal, replicate 1": 103, "calcium signal, replicate 2": 90.2, "call": "inactive"}
{"gene": "amon", "reagent no.": 1, "call": "inactive"}
{"gene": "amon", "reagent no.": 2, "calcium signal, replicate 1": 98.2, "calcium signal, replicate 2": 81.2, "retest calcium signal, replicate 1": 6404, "retest calcium signal, replicate 2": 138, "call": "inactive"}
{"gene": "CG4872", "reagent no.": 1, "calcium signal, replicate 1": 94.4, "calcium signal, replicate 2": 109, "call": "inactive"}
